Data: paper PMC4489650, “Aurora-A-Dependent Control of TACC3 Influences the Rate of Mitotic Spindle Assembly” (PLoS Genetics, 2015)

Protein sequences, listed by entry. Tags and fused reporters are not part of them. Lines headed by an entry give the natural chain unless they say otherwise; changes in a name come on top.
UniProt Q9PTG8: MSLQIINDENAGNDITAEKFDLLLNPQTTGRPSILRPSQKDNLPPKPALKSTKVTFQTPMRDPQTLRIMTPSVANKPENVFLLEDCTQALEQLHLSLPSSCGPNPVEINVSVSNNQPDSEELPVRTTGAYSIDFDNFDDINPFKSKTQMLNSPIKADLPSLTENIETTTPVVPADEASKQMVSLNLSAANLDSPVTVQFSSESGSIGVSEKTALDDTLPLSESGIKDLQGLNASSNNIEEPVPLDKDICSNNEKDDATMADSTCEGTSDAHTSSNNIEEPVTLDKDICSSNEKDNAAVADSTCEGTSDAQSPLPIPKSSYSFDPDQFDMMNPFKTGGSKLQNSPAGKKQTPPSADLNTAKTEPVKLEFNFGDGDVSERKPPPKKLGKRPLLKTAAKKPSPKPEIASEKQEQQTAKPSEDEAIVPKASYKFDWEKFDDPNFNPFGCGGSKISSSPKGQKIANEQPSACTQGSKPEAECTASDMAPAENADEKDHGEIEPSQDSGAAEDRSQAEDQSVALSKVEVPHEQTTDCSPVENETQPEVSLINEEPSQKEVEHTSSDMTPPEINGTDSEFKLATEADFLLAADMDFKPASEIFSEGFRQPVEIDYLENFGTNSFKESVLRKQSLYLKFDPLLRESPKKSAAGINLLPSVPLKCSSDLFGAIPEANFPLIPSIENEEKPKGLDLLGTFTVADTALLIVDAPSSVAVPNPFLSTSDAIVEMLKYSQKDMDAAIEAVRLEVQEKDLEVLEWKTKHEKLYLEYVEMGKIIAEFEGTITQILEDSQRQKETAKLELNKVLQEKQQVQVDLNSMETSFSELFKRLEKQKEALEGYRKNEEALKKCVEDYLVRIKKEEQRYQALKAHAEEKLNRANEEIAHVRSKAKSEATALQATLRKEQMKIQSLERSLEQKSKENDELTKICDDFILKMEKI
UniProt Q91820: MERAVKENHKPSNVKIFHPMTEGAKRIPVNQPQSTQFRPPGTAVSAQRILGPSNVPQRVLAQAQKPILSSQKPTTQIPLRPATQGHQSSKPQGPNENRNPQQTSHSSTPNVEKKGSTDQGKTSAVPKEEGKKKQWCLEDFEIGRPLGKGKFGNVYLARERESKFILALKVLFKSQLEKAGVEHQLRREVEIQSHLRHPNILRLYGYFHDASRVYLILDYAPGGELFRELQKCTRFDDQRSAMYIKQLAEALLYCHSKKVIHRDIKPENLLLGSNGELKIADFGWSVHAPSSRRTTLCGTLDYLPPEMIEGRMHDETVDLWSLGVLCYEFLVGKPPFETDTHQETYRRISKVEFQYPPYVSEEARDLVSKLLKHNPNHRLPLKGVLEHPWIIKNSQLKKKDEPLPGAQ

Molecular target: GST-XTACC3 (full-length Xenopus TACC3, maskin) (Xenopus laevis) (UniProt Q9PTG8)
Test: pull-down; in vitro GST pull-down: 5-10 ug GST recombinant protein on anti-GST coated beads, 0.25 uM His-AurA in kinase buffer (20 mM Hepes pH 7.5, 200 mM KCl, 30 mM MgCl2, 0.5 mM EGTA, 1 mM DTT, 0.05% Triton X-100, 1 mg/ml BSA), 30 mins at 22 C; Western blot; both purified

Substance: His-AurA–KD (Xenopus Aurora A, kinase dead) (from UniProt Q91820) (enzyme)
- binding: binds

No constants are given. Whether binding was seen depends on the method and setting. Binding can be weak; no strength is given.
